From article PMC5380967

Molecular target: GST-tagged CEP131 N-terminal region (human)
Assay: pull-down; GST-tagged CEP131 (full length or deletion mutants) purified from bacteria with His-tagged USP9X deletion mutants purified from Sf9 cells; which was held on beads is not stated; both purified

- binding: binds
B1: His-tagged USP9X/M (domain or fragment, UniProt Q93008 611-1553)
chain: ALVTLVAENLATYMESMRLYARDHEDYDPQTVRLGSRYSHVQEVQERLNFLRFLLKDGQLWLCAPQAKQIWKCLAENAVYLCDREACFKWYSKLMGDEPDLDPDINKDFFESNVLQLDPSLLTENGMKCFERFFKAVNCREGKLVAKRRAYMMDDLELIGLDYLWRVVIQSNDDIASRAIDLLKEIYTNLGPRLQVNQVVIHEDFIQSCFDRLKASYDTLCVLDGDKDSVNCARQEAVRMVRVLTVLREYINECDSDYHEERTILPMSRAFRGKHLSFVVRFPNQGRQVDDLEVWSHTNDTIGSVRRCILNRIKANVAHTKIELFVGGELIDPADDRKLIGQLNLKDKSLITAKLTQISSNMPSSPDSSSDSSTGSPGNHGNHYSDGPNPEVESCLPGVIMSLHPRYISFLWQVADLGSSLNMPPLRDGARVLMKLMPPDSTTIEKLRAICLDHAKLGESSLSPSLDSLFFGPSASQVLYLTEVVYALLMPAGAPLADDSSDFQFHFLKSGGLPLVLSMLTRNNFLPNADMETRRGAYLNALKIAKLLLTAIGYGHVRAVAEACQPGVEGVNPMTQINQVTHDQAVVLQSALQSIPNPSSECMLRNVSVRLAQQISDEASRYMPDICVIRAIQKIIWASGCGSLQLVFSPNEEITKIYEKTNAGNEPDLEDEQVCCEALEVMTLCFALIPTALDALSKEKAWQTFIIDLLLHCHSKTVRQVAQEQFFLMCTRCCMGHRPLLFFITLLFTVLGSTARERAKHSGDYFTLLRHLLNYAYNSNINVPNAEVLLNNEIDWLKRIRDDVKRTGETGIEETILEGHLGVTKELLAFQTSEKKFHIGCEKGGANLIKELIDDFIFPASNVYLQYMRNGELPAEQAIPVCGSPPTINAGFELLVALAVGCVRNLKQIVDSLTEMYYIGTAITTCEALTEWEYLPPVGPRPP

Results are given in words; binding and its absence hold for the method and conditions named. Binding can be weak; no strength is given. Where a sequence is shown, tags or fusion partners need not be part of it.
